Reference: patent US20230312724A1
Results are given in words; binding and its absence hold for the method and conditions named. Some entries that bind do so weakly or less than the wild type.

By UniProt entry, the sequences of proteins in these tests, tags left out. Where a name states a change or a piece, a line headed by the entry shows the natural chain unless it says otherwise.
UniProt Q7Z7D3: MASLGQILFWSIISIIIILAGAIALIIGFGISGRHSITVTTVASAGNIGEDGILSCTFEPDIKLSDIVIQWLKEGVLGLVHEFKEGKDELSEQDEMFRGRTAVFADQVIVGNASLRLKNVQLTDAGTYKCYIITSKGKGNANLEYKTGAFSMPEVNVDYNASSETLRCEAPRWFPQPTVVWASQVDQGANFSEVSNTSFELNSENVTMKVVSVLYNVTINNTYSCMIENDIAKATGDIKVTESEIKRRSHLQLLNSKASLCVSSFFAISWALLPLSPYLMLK
UniProt Q7TSP5: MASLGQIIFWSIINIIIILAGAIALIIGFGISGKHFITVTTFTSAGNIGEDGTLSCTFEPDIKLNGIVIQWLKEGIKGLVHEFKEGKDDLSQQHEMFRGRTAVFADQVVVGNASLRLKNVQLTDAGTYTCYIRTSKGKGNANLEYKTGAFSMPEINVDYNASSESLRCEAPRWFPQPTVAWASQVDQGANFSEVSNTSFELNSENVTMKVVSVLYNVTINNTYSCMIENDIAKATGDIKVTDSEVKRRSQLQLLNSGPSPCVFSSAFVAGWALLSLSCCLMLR

What was measured:
[1] = molecular target: IgV domain of human B7-H4-Fc (human); assay: ELISA
[2] = molecular target: hB7-H4 (soluble human B7-H4, construct not named) (human) (UniProt Q7Z7D3); assay: ELISA
[3] = molecular target: human B7-H4 expressed on cells (human) (UniProt Q7Z7D3); assay: flow cytometry
[4] = molecular target: human B7-H4 expressed on cells (human) (UniProt Q7Z7D3); assay: flow cytometry, CHO-hB7-H4
human B7-H4-Fc (human) [5] = assay: ELISA, coated hB7-H4-Fc
human B7-H4-his (human) [6] = molecular target: human B7-H4-his (human) (UniProt Q7Z7D3); assay: ELISA, coated hB7-H4-his
[7] = molecular target: hB7-H4 (soluble human B7-H4, construct not named) (human) (UniProt Q7Z7D3); assay: summary of ELISA and flow cytometry
[8] = molecular target: IgV domain of human B7-H4-Fc (human); assay: ELISA, coated hB7-H4 IgV domain
[9] = molecular target: human B7-H4 expressed on cells (human) (UniProt Q7Z7D3); assay: flow cytometry, hB7H4 stable cells (CHO)
[10] = molecular target: human B7-H4 expressed on cells (human) (UniProt Q7Z7D3); assay: flow cytometry, CHO cells expressing hB7-H4
[11] = molecular target: IgC domain of human B7-H4-Fc (human); assay: ELISA
[12] = molecular target: IgC domain of mouse B7-H4-Fc (mouse; human); assay: ELISA
[13] = molecular target: IgC domain of human B7-H4-Fc (human); assay: ELISA (FIG. 7)
[14] = molecular target: IgC domain of mouse B7-H4-Fc (mouse; human); assay: ELISA (FIG. 7)
mouse B7-H4-his (mouse) [15] = molecular target: mouse B7-H4-his (mouse) (UniProt Q7TSP5); assay: ELISA, coated mB7-H4-his
[16] = molecular target: mB7-H4 (soluble mouse B7-H4, construct not named) (mouse) (UniProt Q7TSP5); assay: summary of ELISA and flow cytometry
[17] = molecular target: IgC domain of human B7-H4-Fc (human); assay: ELISA, coated hB7-H4 IgC domain
[18] = molecular target: IgC domain of mouse B7-H4-Fc (mouse; human); assay: ELISA, coated mB7-H4 IgC domain
[19] = molecular target: IgV domain of mouse B7-H4-Fc (mouse; human); assay: ELISA
[20] = molecular target: hB7-H4 (soluble human B7-H4, construct not named) (human) (UniProt Q7Z7D3); assay: SPR (Biacore)
[21] = molecular target: mB7-H4 (soluble mouse B7-H4, construct not named) (mouse) (UniProt Q7TSP5); assay: SPR (Biacore)
[22] = molecular target: IgV domain of human B7-H4-Fc (human); assay: ELISA (FIG. 8)
[23] = molecular target: IgV domain of mouse B7-H4-Fc (mouse; human); assay: ELISA (FIG. 8)
[24] = molecular target: IgV domain of mouse B7-H4-Fc (mouse; human); assay: ELISA, coated mB7-H4 IgV domain
[25] = molecular target: IgV domain of human B7-H4-Fc (human); assay: ELISA (FIG. 9)
[26] = molecular target: human B7-H4 expressed on cells (human) (UniProt Q7Z7D3); assay: flow cytometry, SK-BR-3 cells
[27] = molecular target: IgV domain of human B7-H4-Fc (human); assay: ELISA (FIG. 14)
[28] = molecular target: IgV domain of mouse B7-H4-Fc (mouse; human); assay: ELISA (FIG. 14)
[29] = molecular target: IgV domain of human B7-H4-Fc (human); assay: ELISA (FIG. 16)
[30] = molecular target: mB7-H4 (soluble mouse B7-H4, construct not named) (mouse) (UniProt Q7TSP5); assay: ELISA (FIG. 16)
human B7-H4-Fc (human) [31] = assay: ELISA on coated hB7-H4-Fc
human B7-H4-his (human) [32] = molecular target: human B7-H4-his (human) (UniProt Q7Z7D3); assay: ELISA on coated hB7-H4-his
mouse B7-H4-his (mouse) [33] = molecular target: mouse B7-H4-his (mouse) (UniProt Q7TSP5); assay: ELISA on coated mB7-H4-his
[34] = molecular target: IgV domain of human B7-H4-Fc (human); assay: ELISA on coated IgV domain of hB7-H4
[35] = molecular target: IgV domain of mouse B7-H4-Fc (mouse; human); assay: ELISA on coated IgV domain of mB7-H4
human B7-H4-Fc (human) [36] = assay: ELISA

Measured: binding

B1: 6C3/6C3 (antibody, human IgG1, V domains shown)
VH: EVQLLESGGGLVQPGGSLRLSCAASGFTFSSYAMHWVRQAPGKGLEWVASISGTGFTTRYADSVKGRFTISRDNSKNTLYLQMNSLRAEDTAVYYCARGGWFRDTPVDYWGQGTLVTVSS
VL: DIVMTQSPLSLPVTPGEPASISCRSSQSLLHSNGYNYLDWYLQKPGQSPQLLIYGASSLRSGVPDRFSGSGSGTDFTLKISRVEAZDVGVYYCMQASHWPPTFGQGTRLEIK
binds: [1] | [2] | [3] | [4] | human B7-H4-Fc (human) [5] | human B7-H4-his (human) [6] | [7] | [8] | [9] | [10]

B2: 30G4/30G4 (antibody, human IgG1, V domains shown)
VH: QVQLVQSGAEVKKPGASVKVSCKASGYTFSSYYMHWVRQAPGQGLEWMGWMNPNSGDTGYAQKFQGRVTMTRDTSTSTVYMELSSLRSEDTAVYYCARVPETGGMDVWGQGTTVTVSS
VL: DIVMTQSPLSLPVTPGEPASISCRSSQSLLHSNGYNYLDWYLQKPGQSPQLLIYGASSLHSGVPDRFSGSGSGTDFTLKISRVEAEDVGVYYCMQGTHWPPTFGQGTKVEIK
binds: [11] | [12] | [13] | [14] | human B7-H4-Fc (human) [5] | human B7-H4-his (human) [6] | mouse B7-H4-his (mouse) [15] | [7] | [16] | [17] | [18]

B3: 24F4/24F4 (antibody, human IgG1, V domains shown)
VH: QVQLVQSGAEVKKPGSSVKVSCKASGYRFTGDYIHWVRQAPGQGLEWMGWMNPNSGNTGLAQKFQGRVTITADESTSTAYMELSSLRSEDTAVYYCARVLGFSGGMDVWGQGTTVTVSS
VL: DIVMTQSPLSLPVTPGEPASISCRSSQSLLHSNGYNYLDWYLQKPGQSPQLLIYAASSLRSGVPDRFSGSGSGTDFTLKISRVEAEDVGVYYCMQGTHWPPTFGQGTKLEIK
binds: [11] | [12] | [13] | [14] | human B7-H4-Fc (human) [5] | human B7-H4-his (human) [6] | mouse B7-H4-his (mouse) [15] | [7] | [16] | [17] | [18]

B4: 39A11/39A11 (antibody, human IgG1, V domains shown)
VH: EVQLLESGGGLVQPGGSLRLSCAASGFTFSSYGMHWVRQAPGKGLEWVASISSSSGYIYYADSVKGRFTISRDNSKNTLYLQMNSLRAEDTAVYYCARASSGMDVWGQGTTVTVSS
VL: DIQMTQSPSSLSASVGDRVTITCRASQTIRSYLNWYQQKPGKAPKLLIYAASHLQSGVPSRFSGSGSGTDFTLTISSLQPEDFATYYCQQSYTTPYTFGQGTKLEIK
binds: [1] | [19] | [20] | [21] | [22] | [23] | human B7-H4-Fc (human) [5] | human B7-H4-his (human) [6] | mouse B7-H4-his (mouse) [15] | [7] | [16] | [8] | [24]

B5: 3F2/49A2 (antibody, human IgG1, V domains shown)
VH: QVQLVQSGAEVKKPGASVKVSCKASGYTFTAQYMYWVRQAPGQGLEWMGRINPTSGNTVYAQKLQGRVTMTRDTSTSTVYMELSSLRSEDTAVYYCARGINWFDPWGQGTLVTVSS
VL: DIQMTQSPSSLSASVGDRVTITCRASQNIDTYVNWYQQKPGKAPKLLIYAASRLHTVPSRFSGSGSGTDFTLTISSLQPEDFATYYCQQSYTSPFTFGGGTKVEIK
binds: [25] | [3] | human B7-H4-Fc (human) [5] | human B7-H4-his (human) [6] | [26] | [8] | [10]

B6: 39A11/57G8 (antibody, human IgG1, V domains shown)
VH: EVQLLESGGGLVQPGGSLRLSCAASGFTFSSYGMHWVRQAPGKGLEWVASISSSSGYIYYADSVKGRFTISRDNSKNTLYLQMNSLRAEDTAVYYCARASSGMDVWGQGTTVTVSS
VL: DIQMTQSPSSLSASVGDRVTITCRASQSIRSYLNWYQQKPGKAPKLLIYYASSLQSGVPSRFSGSGSGTDFTLTISSLQPEDFATYYCQQYYSTPLTFGQGTKVEIK
binds: [27] | [28] | [29] | [30] | human B7-H4-Fc (human) [5] | human B7-H4-Fc (human) [31] | human B7-H4-his (human) [32] | mouse B7-H4-his (mouse) [33] | [8] | [24] | [34] | [35]

B7: 4B9/4B9 (antibody, human IgG1, V domains shown)
VH: QVQLVQSGAEVKKPGASVKVSCKASGYTFTSYYMHWVRQAPGQGLEWMGWMNPNSGNTGYAQKFQGRVTMTRDTSTSTVYMELSSLRSEDTAVYYCARGQGRYLNYYYMDVWGKGTTVTVSS
VL: DIQMTQSPSSLSASVGDRVTITCRVSQGISNYLAWYQQKPGKAPKLLIYDASSLQSGVPSRFSGSGSGTDFTLTISSLQPEDFATYYCQQSYSTPFTFGPGTKVDIK
binds: human B7-H4-Fc (human) [36] | human B7-H4-Fc (human) [5] | [7]
